Drawing on PubChem BioAssay AID1347423 (Functional Genomics Laboratory (NCATS/FGL), 2020), this text covers z-score for 105 sequences.

About 210 (0.4%) of roughly 52,000 sequences were called active.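 How the source made its calls: active means gene whose silencing raises cell survival under the drug, median off-target-corrected z-score across its silencing RNAs 2 or more; inactive means the rest.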 This is one part of the list.

A short description of the assay: Resistance to Poly (ADP-Ribose) Polymerase inhibitor: Gene Identification via Genome-wide siRNA Screen. Particulars: mouse BRCA2 R2336H ES cells, olaparib, CellTiter-Glo viability; hits give high values. The method in brief:
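Genome-wide siRNA screen (3 siRNAs/gene, 20 nM) in mouse ES cells carrying hypomorphic BRCA2 R2336H; olaparib 500 nM added 48 h post-transfection, CellTiter-Glo viability 72 h later. Normalized to plate-median negative control; MAD z-scores, gene median, seed-adjusted.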
(In ATP-based viability assays light output follows the ATP content of the culture.)
Take GGAAGGAGACACAGAAGAGTT against Mlp: the z-score is inactive: -0.343.

With GCACCACACGGAUGAGUUUTT against Tgm1, the z-score was inactive: 0.207.

As for “CCAUAUACCCUUGAAUUCCTT against 2500001K11Rik”, the z-score is inactive: -0.552.

With CCCUCAACCUGCAUUUUAATT against Lgals2, the z-score is inactive: 0.675.

Consider “GCAGGAAUGUUCAGAAACATT against 4932441K18”, for which the z-score was inactive: -1.27.

With GGUGUACGUCCUACAAGGUTT against Pofut2, the z-score was inactive: 0.641.

As for GGAUUUUCAUACAAGGGCATT against Fmn, the z-score was inactive: 1.49.

As for GGACUUGAGUCAGCUCAUCTT against Fastk, the z-score is inactive: 0.00409.

As for GGCUGCUGAUUAUAUGUUCTT against Sprr2e, the z-score was inactive: -0.5.

For the sequence GGAUAACCUUUUUGAAUGGTT against Ube2j1, the z-score was inactive: 0.171.

For “GCGUAUUACGAAAGAUGUGTT against 2810441A10Rik”, the z-score was inactive: -0.939.

With GGCCUUAGUUUAUACAUGUTT against Dusp18, the z-score is inactive: -0.0857.

On to GGGCUAGCUAACCACAAUUTT against Glipr2, for which the z-score was inactive: -0.542.

For the sequence GGCCUUUAAGACCAUUCGATT against Scyl1, the z-score was inactive: 0.0871.

As to GGAUGGACCUGUUGUGAUUTT against Ssr2, the z-score was inactive: 1.01.

Regarding GCAAUUGUUAGAAAAAGGGTT against Rnasel, the z-score is inactive: 0.426.

For the sequence GGGUAGCUUUAAAUAAAGGTT against Olfr801, the z-score was inactive: 1.81.

GGGUAUAGAAUUGUCUAUUTT against Fn1: the z-score was inactive: -1.63.

For the sequence GGUAUGUCUGCAUAAAUGUTT against Cyp2c38, the z-score was inactive: -0.175.

For GUACCUAGGCAUCAAUGUCTT against Trhr2, the z-score was inactive: -1.17.

On to GCAAUGUUCAAUAUCCAAGTT against Fut9, for which the z-score is inactive: 0.412.

For “GGUUUUCGAUCAAGCCAUUTT against 1110002H13Rik”, the z-score is inactive: -1.25.

GGAGAGAAUAAGAAGAAGATT against Ptprc: the z-score is inactive: -1.05.

Consider GGCUUUUGACAAGCAUAUGTT against Snrpn, for which the z-score was inactive: -0.877.

GCUCAUCGUGUUUUCAACCTT against Cbr3: the z-score is inactive: 0.00324.

In the case of GGUGAUGGUGUAAAAUACATT against Dab2, the z-score was inactive: 1.46.

As for “CCACAAUGAAUGGUAUUUGTT against A230035L05Rik”, the z-score is inactive: 0.867.

GGGAGUUACCGUUUUGUAUTT against Herc1: the z-score was inactive: 1.58.

Regarding GGUGUGUCGAAGUCGAAGGTT against Pip5kl1, the z-score was inactive: -0.569.

Turning to GGUCAAAGUGUAACUUGUUTT against BC016198, the z-score is inactive: -1.68.

Turning to GGCAUGGAGAUGCUACUGATT against Ptk2, the z-score was inactive: 0.419.

Consider GGCUGCUACACAUGCAGAUTT against Gucy2e, for which the z-score is inactive: -1.75.

Consider GGACUUCAGAGUGGACAUUTT against Rgpr, for which the z-score is inactive: 0.19.

As for CGAGGACAAAAAUACCGACTT against Supt6h, the z-score is inactive: -0.864.

Regarding GGAAUGAACCUAUCUUAUATT against Prkab1, the z-score was inactive: 1.14.

Regarding “GGACACCAGUACCUGAAACTT against 9330133O14Rik”, the z-score was inactive: -0.158.

GGAUCAUUAGCAAACACAATT against Capn1: the z-score was inactive: 3.16.

Turning to CCAGUACCUCAAUAUCAAATT against Lsm2, the z-score was inactive: -0.455.

Regarding “GGAGAAAGAGAUUCCUAUUTT against 1810015M01Rik”, the z-score is inactive: 0.865.

Consider “CCAUUUUAGACUACAUCCATT against 1200013P24Rik”, for which the z-score was inactive: 0.0214.

For the sequence GGGAAACAUCCUCAGGGAUTT against D1Ucla4, the z-score is inactive: -0.536.

As to GCUGACCUUUGUAAGUUAUTT against Ttc17, the z-score was inactive: -0.043.

As for CCAAGAGAACUAUUCAGUUTT against Tuba8, the z-score is inactive: -0.0512.

For the sequence GGUCAGUCGUAUGAAAUCCTT against Tcfcp2l1, the z-score is inactive: 2.87.

Regarding GCUGAUAACAGACAUCAUCTT against Pitpnm2, the z-score is inactive: -0.0692.

With CGGUGUUUGAAAUCGUGCATT against Dgcr6, the z-score was inactive: 2.4.

In the case of “GGCUCAUGACCACCAAAACTT against 2600002E23Rik”, the z-score is inactive: 1.

Regarding “GGGUAGUGGCAGAUUUGGATT against 2610042O14Rik”, the z-score was inactive: 0.521.

As for GGACCAAAGAUGCAUCAGUTT against Zfyve16, the z-score is inactive: -1.18.

On to “GGAUGUGUUGUCUUUGGAUTT against A230063L24Rik”, for which the z-score is inactive: -0.753.

Consider GGUUCUGGAUUUCUGUUUUTT against N28178, for which the z-score was inactive: 0.188.

In the case of GCUUCAUCGCAUGAACCGATT against Rabggtb, the z-score is inactive: -0.827.

As for “GGCACUCCAUAGUGAUUUCTT against 5730522E02Rik”, the z-score is inactive: 0.8.

Turning to CCAAUGCUUCGUGAAAGACTT against Eras, the z-score is inactive: -2.32.

Consider AAUCUUUUCGUGAAGGCACTT against BC049807, for which the z-score was inactive: 0.404.

For the sequence GGUUCCAAGUCUAGUGGUGTT against Hn1, the z-score is inactive: -0.0597.

Regarding GGAAUAUGCUGUCAAGAUCTT against Mknk2, the z-score is inactive: 0.678.

As to GGAUAAAGGAAAAGAAACATT against Rcvrn, the z-score was inactive: -1.59.

Consider GGCGUGAACCAAACAGACUTT against Calcrl, for which the z-score was inactive: -0.694.

GCCGGUGAAUAAUCAUGCUTT against Nrn1: the z-score was inactive: 0.787.

Take GGCAUUCCAGUAAAGGAGCTT against Fbxw4: the z-score was inactive: 0.019.

As for “GCCAAGUAAAACCAAAUGUTT against D18Ertd653e”, the z-score was inactive: -0.11.

As for GGAAAGCAAGUCGUAAGCCTT against Mrps10, the z-score is inactive: 1.19.

On to CCGUCUGGACAACAAACACTT against P2rx5, for which the z-score was inactive: 0.84.

GGUUUUAAAGCACUUUGUATT against AI591476: the z-score was inactive: -0.948.

On to GGACAUUGUCUAUUAUUGGTT against Gabrd, for which the z-score was inactive: -0.882.

Take GGUGCUUAUAUUGCUUCCCTT against Psmb5: the z-score is inactive: -2.93.

For GGAUUUUAAACCUUAAGGUTT against Ssty1, the z-score is inactive: 0.28.

As to GGUCUUCUUGACAAUGUAATT against Bpnt1, the z-score is inactive: -0.851.

Turning to GGCACAUUGCUGAAGCCCATT against Aldoa, the z-score was inactive: -2.31.

With GCUGGGUUGCUGAUUUUUGTT against Arl5, the z-score is inactive: 0.0688.

Turning to “GCGAGUCUAGAUGUCUAGCTT against 5730407K14Rik”, the z-score was inactive: -0.0544.

Regarding GGAAGAAUCCACUUUGAACTT against Chi3l4, the z-score was inactive: 0.032.

On to CGUGGUGGUUGUUCGAGUATT against BC057371, for which the z-score was inactive: -0.541.

Take “GGCCUAAUGAAUUUGGUCATT against A630090P18”: the z-score is inactive: 0.43.

With “CAAGCAGUAAGGAUAUCCATT against Nalp-epsilon”, the z-score is inactive: 2.25.

Consider “GGAACAUGUAUCCCAAAGCTT against 2310002J15Rik”, for which the z-score is inactive: -0.8.

With GGACUUGACCUCAAGGGAATT against Sox6, the z-score was inactive: 0.927.

GGAUUUGAUGUGUUCAAUGTT against Nmt2: the z-score is inactive: -0.752.

With GGGUAUGGACCCUAUAUAATT against Osgep, the z-score was inactive: -0.77.

Take GACACCCUGUGACACCAAGTT against Sprr1b: the z-score was inactive: -2.94.

In the case of CGAACGUGAGCUACUGUGGTT against Cacnb4, the z-score is inactive: -0.243.

As to CCAUCUGGCACUUCAACAUTT against Csnk1g1, the z-score is inactive: -0.87.

For GGAUGAAAGAGUUUCUGCATT against Spin, the z-score is inactive: 0.0559.

Consider GCCUGUGUGAUGCAACAGGTT against Ifna5, for which the z-score is inactive: 0.813.

Turning to GGAUUUUCACCAACAGCCUTT against Gh, the z-score is inactive: -1.17.

With “ACCCUCAAUGAUUCAGGAATT against 4930415J05Rik”, the z-score was inactive: -0.0913.

In the case of GCUCUUAUGUUUAAUAUGGTT against Mrps2, the z-score is inactive: -0.217.

In the case of GGUUUUAGGAUCCUAGAAGTT against Ap1s1, the z-score is inactive: 0.679.

For GUCUUCCCUCAUCCUUUGATT against Cox8a, the z-score is inactive: -1.2.

For GGACGAUAGGACCCAAAGGTT against Sh3tc1, the z-score was inactive: 0.266.

Regarding CCUAUAGCAAUGGCAGCAGTT against Pkn1, the z-score is inactive: -0.103.

As for GGACGUGAGCUCCAUCAUUTT against Mg29, the z-score was inactive: -1.57.

As to GCCCUCAUUCAACACAUAATT against Clca3, the z-score is inactive: 0.21.

GGGCACAUUAUGCAGAACUTT against Tnfrsf19l: the z-score is inactive: 1.76.

Turning to “GCACAGUCCAUGAAUCAGATT against 4930432K21Rik”, the z-score is inactive: -0.903.

Consider CCCUAUUAAGAUGUCUACGTT against Rwdd2, for which the z-score was inactive: 0.686.

GUUUCUCGAAGAGCAUCCUTT against Cyb5: the z-score was inactive: 0.711.

For the sequence CCGGCUAUGAAGAUGAGUATT against Cox6a1, the z-score is inactive: -0.089.

GGGCUCUGUCAGAUAAUCUTT against LOC432988: the z-score is inactive: 0.314.

As to GCGACCGUAUUGUCACUUGTT against Arpc1a, the z-score was inactive: 0.0743.

As for GCAGUACGCUGCAUUUAAATT against Mtrf1l, the z-score is inactive: -0.215.

In the case of GGGCCUUGAAUCUUUGUACTT against Galt, the z-score was inactive: -0.358.

For GCUACUCAUGCUAGAUGACTT against Gba, the z-score was inactive: 1.64.

In the case of “GGAGUUUCAGGUUUUACUUTT against 4921523A10Rik”, the z-score is inactive: 0.686.
